# These are yes or no findings as the source states them, for the method shown. In cells and extracts the contact can be indirect. These calls come from enrichment with a bait or labelling near it, and not all partners need be listed.
# The chains behind the UniProt entries cited, without tags or fusion partners.
# UniProt Q9Y519: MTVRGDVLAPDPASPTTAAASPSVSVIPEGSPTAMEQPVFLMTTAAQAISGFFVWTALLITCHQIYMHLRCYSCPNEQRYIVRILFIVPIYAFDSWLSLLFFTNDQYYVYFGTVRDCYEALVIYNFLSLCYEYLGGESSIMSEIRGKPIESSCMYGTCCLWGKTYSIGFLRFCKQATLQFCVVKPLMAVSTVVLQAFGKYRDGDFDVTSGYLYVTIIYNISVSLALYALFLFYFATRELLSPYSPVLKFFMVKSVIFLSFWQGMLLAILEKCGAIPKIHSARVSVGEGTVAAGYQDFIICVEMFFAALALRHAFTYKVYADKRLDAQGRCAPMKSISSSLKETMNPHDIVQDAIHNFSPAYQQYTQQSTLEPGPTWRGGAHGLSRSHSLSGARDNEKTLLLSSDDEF
# UniProt O60826: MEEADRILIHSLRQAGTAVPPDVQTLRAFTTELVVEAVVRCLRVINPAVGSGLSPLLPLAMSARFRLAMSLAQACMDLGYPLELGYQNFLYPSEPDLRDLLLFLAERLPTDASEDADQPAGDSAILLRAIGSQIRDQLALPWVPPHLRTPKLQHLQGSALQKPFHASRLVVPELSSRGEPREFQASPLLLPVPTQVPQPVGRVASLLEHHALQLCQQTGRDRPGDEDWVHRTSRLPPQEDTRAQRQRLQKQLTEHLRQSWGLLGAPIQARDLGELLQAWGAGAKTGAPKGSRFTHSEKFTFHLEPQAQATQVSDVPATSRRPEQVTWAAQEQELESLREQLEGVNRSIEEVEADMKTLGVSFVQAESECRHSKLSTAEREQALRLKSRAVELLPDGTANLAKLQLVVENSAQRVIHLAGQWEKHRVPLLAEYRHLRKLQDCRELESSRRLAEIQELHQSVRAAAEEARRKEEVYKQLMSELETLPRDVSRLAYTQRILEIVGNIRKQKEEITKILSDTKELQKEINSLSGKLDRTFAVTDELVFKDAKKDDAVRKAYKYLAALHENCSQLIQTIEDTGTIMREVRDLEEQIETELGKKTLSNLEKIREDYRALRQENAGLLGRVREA
# UniProt Q9Y6D5: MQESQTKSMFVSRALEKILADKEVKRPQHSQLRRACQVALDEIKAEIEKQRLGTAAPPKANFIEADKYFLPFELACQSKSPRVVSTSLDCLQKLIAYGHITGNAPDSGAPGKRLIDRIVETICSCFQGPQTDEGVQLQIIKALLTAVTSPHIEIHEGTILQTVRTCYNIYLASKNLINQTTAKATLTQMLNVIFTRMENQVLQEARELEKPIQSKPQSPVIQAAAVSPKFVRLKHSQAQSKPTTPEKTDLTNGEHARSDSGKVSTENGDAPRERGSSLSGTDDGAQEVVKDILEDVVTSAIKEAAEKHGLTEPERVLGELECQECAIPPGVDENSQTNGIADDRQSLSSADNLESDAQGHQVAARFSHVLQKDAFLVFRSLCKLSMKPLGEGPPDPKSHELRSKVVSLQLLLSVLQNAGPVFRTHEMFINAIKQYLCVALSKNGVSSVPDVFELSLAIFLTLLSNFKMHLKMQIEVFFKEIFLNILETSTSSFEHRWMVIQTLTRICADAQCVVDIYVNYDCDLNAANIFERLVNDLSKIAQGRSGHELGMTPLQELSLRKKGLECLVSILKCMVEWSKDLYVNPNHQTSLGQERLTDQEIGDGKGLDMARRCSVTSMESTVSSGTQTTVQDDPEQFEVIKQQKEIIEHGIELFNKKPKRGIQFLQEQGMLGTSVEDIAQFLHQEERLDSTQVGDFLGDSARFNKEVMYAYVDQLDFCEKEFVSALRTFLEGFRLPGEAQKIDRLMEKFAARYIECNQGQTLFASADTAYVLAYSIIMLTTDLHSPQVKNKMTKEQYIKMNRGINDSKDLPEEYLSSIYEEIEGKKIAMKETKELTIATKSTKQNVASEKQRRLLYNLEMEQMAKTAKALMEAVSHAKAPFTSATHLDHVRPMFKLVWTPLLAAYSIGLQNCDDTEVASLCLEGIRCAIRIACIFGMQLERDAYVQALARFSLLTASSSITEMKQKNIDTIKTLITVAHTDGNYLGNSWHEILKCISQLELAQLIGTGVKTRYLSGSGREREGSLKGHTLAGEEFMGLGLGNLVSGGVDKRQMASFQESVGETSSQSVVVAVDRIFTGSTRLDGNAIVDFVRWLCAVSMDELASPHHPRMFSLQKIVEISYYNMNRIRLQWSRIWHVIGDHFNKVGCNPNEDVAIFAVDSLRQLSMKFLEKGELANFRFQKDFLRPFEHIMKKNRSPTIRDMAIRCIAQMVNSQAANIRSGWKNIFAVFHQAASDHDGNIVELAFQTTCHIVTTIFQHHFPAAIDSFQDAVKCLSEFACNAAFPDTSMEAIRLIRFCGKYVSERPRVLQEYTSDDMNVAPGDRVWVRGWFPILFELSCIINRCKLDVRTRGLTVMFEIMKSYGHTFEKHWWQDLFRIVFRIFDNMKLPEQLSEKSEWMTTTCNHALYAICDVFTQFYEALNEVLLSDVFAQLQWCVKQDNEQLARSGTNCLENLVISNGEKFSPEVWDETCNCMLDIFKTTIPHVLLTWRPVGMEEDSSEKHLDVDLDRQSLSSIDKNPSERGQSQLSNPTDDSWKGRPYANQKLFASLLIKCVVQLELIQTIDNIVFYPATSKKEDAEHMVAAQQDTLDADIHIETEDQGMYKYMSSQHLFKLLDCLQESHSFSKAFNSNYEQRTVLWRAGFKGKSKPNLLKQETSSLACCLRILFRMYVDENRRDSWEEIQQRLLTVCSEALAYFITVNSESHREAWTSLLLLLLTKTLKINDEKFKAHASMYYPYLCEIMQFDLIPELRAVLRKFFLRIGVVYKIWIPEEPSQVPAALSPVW
# UniProt Q9Y485: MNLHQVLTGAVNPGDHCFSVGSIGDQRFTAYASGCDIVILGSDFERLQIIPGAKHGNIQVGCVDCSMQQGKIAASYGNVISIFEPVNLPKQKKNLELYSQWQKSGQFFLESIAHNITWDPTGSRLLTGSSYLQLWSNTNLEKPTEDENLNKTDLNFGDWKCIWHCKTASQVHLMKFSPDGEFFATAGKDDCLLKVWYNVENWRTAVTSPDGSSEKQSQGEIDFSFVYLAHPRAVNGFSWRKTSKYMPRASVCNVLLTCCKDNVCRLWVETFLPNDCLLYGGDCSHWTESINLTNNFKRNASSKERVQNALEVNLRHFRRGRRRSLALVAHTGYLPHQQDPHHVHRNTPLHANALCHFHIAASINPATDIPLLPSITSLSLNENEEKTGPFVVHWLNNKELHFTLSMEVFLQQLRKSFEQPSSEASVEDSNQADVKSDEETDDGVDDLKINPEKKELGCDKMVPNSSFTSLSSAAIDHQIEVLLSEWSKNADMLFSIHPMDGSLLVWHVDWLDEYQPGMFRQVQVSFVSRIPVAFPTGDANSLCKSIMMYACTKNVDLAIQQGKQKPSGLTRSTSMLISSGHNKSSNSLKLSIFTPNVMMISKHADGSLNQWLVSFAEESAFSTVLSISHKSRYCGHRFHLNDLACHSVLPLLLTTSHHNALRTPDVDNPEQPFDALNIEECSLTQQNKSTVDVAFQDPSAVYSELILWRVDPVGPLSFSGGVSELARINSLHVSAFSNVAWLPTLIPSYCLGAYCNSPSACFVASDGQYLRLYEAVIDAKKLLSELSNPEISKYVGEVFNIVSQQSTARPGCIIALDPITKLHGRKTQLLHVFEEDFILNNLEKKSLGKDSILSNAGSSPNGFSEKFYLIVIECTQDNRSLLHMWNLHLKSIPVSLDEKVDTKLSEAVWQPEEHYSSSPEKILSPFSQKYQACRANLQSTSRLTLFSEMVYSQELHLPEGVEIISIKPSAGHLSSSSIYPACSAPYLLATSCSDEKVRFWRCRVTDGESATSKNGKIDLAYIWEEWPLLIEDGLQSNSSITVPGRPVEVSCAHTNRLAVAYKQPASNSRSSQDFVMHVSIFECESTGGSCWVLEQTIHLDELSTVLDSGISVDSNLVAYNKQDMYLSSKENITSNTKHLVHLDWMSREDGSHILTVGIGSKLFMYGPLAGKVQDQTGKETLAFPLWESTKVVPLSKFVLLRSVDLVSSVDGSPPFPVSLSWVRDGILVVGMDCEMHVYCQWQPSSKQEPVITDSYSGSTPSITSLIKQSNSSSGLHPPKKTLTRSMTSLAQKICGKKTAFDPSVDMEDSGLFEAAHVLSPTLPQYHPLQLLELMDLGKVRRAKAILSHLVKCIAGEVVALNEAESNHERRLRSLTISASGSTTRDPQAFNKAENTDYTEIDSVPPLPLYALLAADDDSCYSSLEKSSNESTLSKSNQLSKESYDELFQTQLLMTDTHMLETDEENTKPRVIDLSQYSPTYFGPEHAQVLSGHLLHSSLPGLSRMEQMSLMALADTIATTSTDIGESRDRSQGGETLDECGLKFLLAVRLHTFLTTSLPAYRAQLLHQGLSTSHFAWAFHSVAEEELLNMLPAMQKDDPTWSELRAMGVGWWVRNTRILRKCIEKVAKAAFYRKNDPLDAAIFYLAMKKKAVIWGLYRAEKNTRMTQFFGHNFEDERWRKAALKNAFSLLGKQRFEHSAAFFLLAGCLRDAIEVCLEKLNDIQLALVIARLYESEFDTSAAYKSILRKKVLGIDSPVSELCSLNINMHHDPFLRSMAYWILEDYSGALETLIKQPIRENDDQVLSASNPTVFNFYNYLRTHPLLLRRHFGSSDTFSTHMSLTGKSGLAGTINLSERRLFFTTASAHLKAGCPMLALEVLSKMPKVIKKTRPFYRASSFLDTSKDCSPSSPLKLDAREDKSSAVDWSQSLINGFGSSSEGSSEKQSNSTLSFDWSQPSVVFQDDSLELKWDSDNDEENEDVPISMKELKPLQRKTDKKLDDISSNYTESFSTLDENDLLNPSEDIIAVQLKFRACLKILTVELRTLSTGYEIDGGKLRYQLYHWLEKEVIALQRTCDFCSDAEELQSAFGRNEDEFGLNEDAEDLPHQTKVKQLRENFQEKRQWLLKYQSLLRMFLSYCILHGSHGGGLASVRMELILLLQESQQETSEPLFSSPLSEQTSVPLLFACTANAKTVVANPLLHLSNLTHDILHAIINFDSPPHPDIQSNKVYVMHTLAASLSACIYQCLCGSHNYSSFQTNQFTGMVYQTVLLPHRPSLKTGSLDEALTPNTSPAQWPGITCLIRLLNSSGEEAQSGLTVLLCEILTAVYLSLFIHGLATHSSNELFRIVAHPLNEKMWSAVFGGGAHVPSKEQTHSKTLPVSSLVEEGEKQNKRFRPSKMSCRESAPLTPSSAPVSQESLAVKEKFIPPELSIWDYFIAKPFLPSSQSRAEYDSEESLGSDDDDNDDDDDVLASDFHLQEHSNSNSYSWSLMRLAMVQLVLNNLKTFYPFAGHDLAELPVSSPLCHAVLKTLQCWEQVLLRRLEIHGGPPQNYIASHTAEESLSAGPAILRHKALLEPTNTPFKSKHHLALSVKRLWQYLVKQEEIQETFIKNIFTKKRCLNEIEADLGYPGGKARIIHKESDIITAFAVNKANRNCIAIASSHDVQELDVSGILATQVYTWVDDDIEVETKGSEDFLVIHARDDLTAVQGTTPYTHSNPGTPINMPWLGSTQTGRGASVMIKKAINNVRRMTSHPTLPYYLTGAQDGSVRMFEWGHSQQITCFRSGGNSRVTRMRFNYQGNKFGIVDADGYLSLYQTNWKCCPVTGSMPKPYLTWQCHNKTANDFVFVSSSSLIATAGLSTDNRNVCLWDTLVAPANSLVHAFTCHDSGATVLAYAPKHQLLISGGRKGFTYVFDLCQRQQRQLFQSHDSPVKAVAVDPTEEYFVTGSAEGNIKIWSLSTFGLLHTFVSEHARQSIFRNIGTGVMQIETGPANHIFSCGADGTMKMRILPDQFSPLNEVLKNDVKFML
# Target: Transmembrane protein 184B (TMEM184B), C-terminal Myc or V5 tag (not stated (human or mouse cDNA cloned)) (UniProt Q9Y519)
# Assay: affinity purification with mass spectrometry; HEK293T transfected with TMEM184B–Myc or TMEM184B–V5, two biological replicates each; RIPA lysate (1.5 mg) on Protein A/G magnetic beads with anti-Myc or anti-V5 antibody, overnight 4°C; control baits with the same tags; hits with fold change >=2 in both tag systems, common contaminants filtered …
row,binding,Molecule
1,binds,"AAA-ATPase VPS4B (protein, UniProt O75351 1-444) MSSTSPNLQKAIDLASKAAQEDKAGNYEEALQLYQHAVQYFLHVVKYEAQGDKAKQSIRAKCTEYLDRAEKLKEYLKNKEKKAQKPVKEGQPSPADEKGNDSDGEGESDDPEKKKLQNQLQGAIVIERPNVKWSDVAGLEGAKEALKEAVILPIKFPHLFTGKRTPWRGILLFGPPGTGKSYLAKAVATEANNSTFFSISSSDLVSKWLGESEKLVKNLFQLARENKPSIIFIDEIDSLCGSRSENESEAARRIKTEFLVQMQGVGVDNDGILVLGATNIPWVLDSAIRRRFEKRIYIPLPEPHARAAMFKLHLGTTQNSLTEADFRELGRKTDGYSGADISIIVRDALMQPVRKVQSATHFKKVRGPSRADPNHLVDDLLTPCSPGDPGAIEMTWMDVPGDKLLEPVVSMSDMLRSLSNTKPTVNEHDLLKLKKFTEDFGQEG"
2,binds,"EH domain containing protein family 3 (EHD3) (protein, UniProt Q9NZN3 1-535) MFSWLGTDDRRRKDPEVFQTVSEGLKKLYKSKLLPLEEHYRFHEFHSPALEDADFDNKPMVLLVGQYSTGKTTFIRYLLEQDFPGMRIGPEPTTDSFIAVMQGDMEGIIPGNALVVDPKKPFRKLNAFGNAFLNRFVCAQLPNPVLESISVIDTPGILSGEKQRISRGYDFAAVLEWFAERVDRIILLFDAHKLDISDEFSEVIKALKNHEDKMRVVLNKADQIETQQLMRVYGALMWSLGKIVNTPEVIRVYIGSFWSHPLLIPDNRKLFEAEEQDLFRDIQSLPRNAALRKLNDLIKRARLAKVHAYIISSLKKEMPSVFGKDNKKKELVNNLAEIYGRIEREHQISPGDFPNLKRMQDQLQAQDFSKFQPLKSKLLEVVDDMLAHDIAQLMVLVRQEESQRPIQMVKGGAFEGTLHGPFGHGYGEGAGEGIDDAEWVVARDKPMYDEIFYTLSPVDGKITGANAKKEMVRSKLPNSVLGKIWKLADIDKDGMLDDDEFALANHLIKVKLEGHELPNELPAHLLPPSKRKVAE"

# Target: Transmembrane protein 184B (TMEM184B), C-terminal Myc or V5 tag (not stated (human or mouse cDNA cloned)) (UniProt Q9Y519)
# Assay: as above
# Remark: another data set of the same source
row,binding,Molecule
1,binds,coiled-coil domain containing 22 (CCDC22) (from UniProt O60826 1-627)
2,binds,ADP-ribosylation factor guanine nucleotide exchange factor 2 (ARFGEF2) (from UniProt Q9Y6D5 1-1785)
3,binds,V-ATPase subunit V0a isoform a2 (from UniProt Q9Y487 1-856)
4,binds,Drosophila melanogaster X chromosomal gene-like protein 1 (DMXL1) (from UniProt Q9Y485 1-3027)
5,binds,Drosophila melanogaster X chromosomal gene-like protein 2 (DMXL2) (from UniProt Q8TDJ6 1-3036)
6,binds,ATP6V0A1 (the V0a1 subunit of the V-ATPase) (from UniProt Q93050 1-837)

# — paper PMC12377713
